These are yes or no findings as the source states them, for the method shown. Some binding calls cover weakened binding; strength is not graded here.

Sequences of proteins named here, by UniProt entry; tags and fusion partners are left off. A change or cut given only in a name is not applied to a line headed by its entry.
UniProt P08172: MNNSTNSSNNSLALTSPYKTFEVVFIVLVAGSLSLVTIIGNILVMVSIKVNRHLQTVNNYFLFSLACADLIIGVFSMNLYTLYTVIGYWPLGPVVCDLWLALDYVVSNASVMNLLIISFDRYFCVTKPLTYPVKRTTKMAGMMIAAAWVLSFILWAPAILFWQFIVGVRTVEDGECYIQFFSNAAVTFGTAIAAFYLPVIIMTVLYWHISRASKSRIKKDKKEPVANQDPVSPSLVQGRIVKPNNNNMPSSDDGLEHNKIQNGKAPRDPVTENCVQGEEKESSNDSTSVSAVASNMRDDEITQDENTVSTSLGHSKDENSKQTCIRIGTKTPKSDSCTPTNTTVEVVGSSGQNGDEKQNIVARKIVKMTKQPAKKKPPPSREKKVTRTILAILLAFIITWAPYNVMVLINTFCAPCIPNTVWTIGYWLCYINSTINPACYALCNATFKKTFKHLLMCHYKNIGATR

Experiment [1] deals with human M2 muscarinic receptor (glycosylation sites removed, amino-terminal FLAG tag, carboxy-terminal 8xHis tag, residues 233-374 of intracellular loop 3 deleted) (human) (UniProt P08172). The experiment can be described thus: complex formation for the crystallization sample, purified by size exclusion. For orientation: In gel filtration, larger molecules generally elute earlier.

Experiment [2] shares this target. The experiment can be described thus: radioligand (N-methylscopolamine) binding assay.

B1: Nb_B4 (VHH)
VHH: QVQLQESGGGLVQAGGSLRLSCAASGRTFSNYAMSWFRQAPGKERGLVATIYRSGEGTYYLPSAKGRFTVSRDNAKNTAYLQMNSLKAEDTAVYYCAVMSRGTWSMWGQGTQVTVSS
Take B1: the binding result in experiment [1] and in experiment [2] was “binds” throughout.

Values taken from patent US20150368339A1.
